Reference: article PMC4519132
These are yes or no findings as the source states them, for the method shown. In cells and extracts the contact can be indirect. Here binding means that the protein was enriched with, or labelled near, the bait; the list need not be complete.

The chains behind the UniProt entries cited, without tags or fusion partners.
UniProt Q7KTX8: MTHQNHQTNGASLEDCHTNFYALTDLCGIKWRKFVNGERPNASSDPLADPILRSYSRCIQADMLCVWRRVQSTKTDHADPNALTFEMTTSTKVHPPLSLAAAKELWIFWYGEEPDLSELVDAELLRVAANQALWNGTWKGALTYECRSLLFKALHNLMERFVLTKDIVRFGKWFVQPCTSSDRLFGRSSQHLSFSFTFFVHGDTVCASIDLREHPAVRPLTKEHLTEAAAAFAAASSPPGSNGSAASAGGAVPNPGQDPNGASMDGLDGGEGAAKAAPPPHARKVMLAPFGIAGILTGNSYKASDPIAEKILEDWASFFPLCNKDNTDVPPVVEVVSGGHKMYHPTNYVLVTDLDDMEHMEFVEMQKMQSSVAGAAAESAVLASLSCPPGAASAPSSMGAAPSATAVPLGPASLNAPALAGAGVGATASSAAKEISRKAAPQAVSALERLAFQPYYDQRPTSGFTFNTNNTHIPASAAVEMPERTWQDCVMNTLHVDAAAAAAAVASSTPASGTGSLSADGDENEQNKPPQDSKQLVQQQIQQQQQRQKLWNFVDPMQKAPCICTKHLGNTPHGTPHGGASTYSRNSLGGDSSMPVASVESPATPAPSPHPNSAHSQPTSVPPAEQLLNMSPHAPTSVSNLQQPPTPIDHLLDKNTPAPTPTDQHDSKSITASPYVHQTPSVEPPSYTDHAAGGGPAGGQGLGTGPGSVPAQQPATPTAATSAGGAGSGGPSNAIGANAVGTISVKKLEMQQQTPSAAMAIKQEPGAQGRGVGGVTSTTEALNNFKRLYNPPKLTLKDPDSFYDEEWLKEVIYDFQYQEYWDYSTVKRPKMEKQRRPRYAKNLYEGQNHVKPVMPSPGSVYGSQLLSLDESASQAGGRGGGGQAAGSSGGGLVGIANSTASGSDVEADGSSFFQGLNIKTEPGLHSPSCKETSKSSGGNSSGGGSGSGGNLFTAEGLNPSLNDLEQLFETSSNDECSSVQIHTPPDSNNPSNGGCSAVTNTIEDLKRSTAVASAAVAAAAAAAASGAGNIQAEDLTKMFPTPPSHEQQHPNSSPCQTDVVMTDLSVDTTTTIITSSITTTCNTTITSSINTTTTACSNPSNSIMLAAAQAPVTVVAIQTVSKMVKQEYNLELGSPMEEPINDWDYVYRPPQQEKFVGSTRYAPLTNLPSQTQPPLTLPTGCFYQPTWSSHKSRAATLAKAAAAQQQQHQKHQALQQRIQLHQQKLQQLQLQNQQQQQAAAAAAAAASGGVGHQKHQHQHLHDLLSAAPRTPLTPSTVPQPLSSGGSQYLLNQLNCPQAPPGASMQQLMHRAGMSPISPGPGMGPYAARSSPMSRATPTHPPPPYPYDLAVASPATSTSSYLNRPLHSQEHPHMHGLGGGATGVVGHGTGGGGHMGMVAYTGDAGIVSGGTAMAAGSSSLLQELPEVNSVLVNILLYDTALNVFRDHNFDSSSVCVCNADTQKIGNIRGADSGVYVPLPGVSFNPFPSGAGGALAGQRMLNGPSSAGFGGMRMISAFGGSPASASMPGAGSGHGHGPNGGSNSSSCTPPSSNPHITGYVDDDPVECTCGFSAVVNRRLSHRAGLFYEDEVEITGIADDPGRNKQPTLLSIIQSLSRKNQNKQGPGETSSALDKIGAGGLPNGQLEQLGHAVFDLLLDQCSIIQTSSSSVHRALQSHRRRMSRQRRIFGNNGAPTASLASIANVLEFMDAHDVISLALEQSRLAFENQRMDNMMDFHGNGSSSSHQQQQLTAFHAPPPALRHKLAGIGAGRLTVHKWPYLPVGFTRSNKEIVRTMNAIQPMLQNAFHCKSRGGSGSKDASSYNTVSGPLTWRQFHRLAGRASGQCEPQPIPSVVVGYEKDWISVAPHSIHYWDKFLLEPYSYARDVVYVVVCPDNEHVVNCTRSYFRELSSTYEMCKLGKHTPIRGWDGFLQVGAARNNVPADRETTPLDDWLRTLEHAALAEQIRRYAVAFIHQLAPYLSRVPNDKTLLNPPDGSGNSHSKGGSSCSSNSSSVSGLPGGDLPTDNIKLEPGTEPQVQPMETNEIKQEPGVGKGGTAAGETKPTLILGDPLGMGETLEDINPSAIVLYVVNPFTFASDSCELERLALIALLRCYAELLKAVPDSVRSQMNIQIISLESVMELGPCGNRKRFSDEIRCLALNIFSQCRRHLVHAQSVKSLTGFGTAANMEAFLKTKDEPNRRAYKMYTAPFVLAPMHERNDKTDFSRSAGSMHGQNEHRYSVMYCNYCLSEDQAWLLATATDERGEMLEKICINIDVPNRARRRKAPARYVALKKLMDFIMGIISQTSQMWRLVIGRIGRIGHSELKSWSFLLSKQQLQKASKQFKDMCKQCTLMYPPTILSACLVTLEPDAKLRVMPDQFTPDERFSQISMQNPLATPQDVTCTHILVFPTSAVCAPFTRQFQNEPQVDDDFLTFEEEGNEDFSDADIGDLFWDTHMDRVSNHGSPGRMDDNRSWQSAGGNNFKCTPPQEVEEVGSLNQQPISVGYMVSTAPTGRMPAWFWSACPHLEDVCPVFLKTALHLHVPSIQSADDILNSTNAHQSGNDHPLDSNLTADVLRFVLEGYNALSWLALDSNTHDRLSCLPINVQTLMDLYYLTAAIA
UniProt Q9VT57: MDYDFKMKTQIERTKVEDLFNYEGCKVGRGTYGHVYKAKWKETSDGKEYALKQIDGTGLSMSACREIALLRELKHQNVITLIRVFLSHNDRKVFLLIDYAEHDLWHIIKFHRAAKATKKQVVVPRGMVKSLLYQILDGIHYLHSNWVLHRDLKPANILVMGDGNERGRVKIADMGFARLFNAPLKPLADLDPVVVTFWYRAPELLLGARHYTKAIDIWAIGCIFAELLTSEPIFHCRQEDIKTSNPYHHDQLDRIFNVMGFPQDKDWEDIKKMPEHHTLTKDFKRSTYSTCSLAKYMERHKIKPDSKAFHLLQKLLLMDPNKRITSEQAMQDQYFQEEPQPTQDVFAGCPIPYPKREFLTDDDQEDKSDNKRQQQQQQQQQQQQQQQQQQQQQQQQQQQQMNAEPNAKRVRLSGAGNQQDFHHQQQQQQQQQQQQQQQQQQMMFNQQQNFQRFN
UniProt Q9VW47: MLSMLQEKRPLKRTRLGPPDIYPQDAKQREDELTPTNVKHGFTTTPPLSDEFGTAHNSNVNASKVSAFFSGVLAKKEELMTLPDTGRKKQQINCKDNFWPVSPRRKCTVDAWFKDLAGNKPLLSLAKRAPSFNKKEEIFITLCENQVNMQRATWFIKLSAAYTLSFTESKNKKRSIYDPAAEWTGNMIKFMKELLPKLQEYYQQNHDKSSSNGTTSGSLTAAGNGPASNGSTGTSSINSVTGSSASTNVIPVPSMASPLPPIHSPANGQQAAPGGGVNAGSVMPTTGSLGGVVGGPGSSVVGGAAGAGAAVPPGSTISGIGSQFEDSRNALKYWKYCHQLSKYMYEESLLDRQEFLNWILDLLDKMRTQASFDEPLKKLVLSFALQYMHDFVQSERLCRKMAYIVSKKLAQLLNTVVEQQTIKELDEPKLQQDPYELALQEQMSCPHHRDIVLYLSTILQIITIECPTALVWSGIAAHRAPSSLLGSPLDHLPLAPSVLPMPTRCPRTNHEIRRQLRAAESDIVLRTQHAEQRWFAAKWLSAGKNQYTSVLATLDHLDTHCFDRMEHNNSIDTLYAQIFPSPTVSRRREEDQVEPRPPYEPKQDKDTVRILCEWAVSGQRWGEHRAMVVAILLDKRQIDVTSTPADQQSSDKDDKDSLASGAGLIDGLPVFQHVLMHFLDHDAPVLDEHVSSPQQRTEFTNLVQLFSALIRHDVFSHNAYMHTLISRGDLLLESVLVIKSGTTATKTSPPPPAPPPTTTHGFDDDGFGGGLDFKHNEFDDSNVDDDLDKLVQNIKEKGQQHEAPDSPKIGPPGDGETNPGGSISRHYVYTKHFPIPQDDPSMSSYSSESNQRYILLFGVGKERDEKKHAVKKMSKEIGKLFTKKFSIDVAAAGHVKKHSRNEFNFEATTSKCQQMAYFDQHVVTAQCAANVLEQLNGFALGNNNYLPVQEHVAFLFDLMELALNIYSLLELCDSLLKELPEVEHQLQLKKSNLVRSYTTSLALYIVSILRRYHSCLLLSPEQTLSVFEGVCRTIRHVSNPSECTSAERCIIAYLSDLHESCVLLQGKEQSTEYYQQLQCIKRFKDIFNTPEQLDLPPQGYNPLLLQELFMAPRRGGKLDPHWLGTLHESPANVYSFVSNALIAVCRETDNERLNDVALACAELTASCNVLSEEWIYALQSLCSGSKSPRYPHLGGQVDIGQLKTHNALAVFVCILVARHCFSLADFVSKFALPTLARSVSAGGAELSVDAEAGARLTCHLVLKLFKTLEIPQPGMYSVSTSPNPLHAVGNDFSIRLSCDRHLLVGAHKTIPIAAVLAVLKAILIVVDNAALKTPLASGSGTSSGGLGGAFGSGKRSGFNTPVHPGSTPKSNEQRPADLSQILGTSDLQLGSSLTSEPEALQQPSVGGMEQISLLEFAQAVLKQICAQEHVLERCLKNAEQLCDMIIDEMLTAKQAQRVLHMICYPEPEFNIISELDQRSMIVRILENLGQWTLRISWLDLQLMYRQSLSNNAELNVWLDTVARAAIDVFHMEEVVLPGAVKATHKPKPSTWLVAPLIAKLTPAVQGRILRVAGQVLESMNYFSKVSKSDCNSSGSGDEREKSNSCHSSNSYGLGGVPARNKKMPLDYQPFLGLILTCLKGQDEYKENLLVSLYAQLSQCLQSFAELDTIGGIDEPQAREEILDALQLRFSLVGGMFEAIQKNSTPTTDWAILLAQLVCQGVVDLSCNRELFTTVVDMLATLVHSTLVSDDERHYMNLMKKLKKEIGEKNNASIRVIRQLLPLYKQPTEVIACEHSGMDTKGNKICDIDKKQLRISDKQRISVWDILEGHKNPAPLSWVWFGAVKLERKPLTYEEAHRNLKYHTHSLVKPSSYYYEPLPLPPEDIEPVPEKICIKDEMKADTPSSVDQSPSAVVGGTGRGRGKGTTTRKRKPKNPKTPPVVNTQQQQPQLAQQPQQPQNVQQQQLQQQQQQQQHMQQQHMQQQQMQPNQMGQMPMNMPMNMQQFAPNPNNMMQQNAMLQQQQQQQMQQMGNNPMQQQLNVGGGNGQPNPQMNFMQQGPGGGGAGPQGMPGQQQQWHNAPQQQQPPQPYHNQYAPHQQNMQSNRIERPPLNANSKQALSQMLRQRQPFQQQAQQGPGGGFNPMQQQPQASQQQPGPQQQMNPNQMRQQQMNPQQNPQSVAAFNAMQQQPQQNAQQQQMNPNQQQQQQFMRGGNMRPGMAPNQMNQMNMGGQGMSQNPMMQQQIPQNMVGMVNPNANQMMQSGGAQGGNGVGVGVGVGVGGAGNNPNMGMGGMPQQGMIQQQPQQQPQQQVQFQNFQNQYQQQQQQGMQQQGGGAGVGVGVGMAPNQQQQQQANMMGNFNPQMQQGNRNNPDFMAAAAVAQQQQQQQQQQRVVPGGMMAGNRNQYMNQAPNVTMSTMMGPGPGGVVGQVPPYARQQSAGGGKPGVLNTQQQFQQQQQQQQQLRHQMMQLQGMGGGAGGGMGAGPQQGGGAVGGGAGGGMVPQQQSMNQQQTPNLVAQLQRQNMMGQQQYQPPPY

T1: Ultraspiracle (USP) (Drosophila melanogaster (endogenous in white prepupae)) (UniProt P20153)
T1 sequence: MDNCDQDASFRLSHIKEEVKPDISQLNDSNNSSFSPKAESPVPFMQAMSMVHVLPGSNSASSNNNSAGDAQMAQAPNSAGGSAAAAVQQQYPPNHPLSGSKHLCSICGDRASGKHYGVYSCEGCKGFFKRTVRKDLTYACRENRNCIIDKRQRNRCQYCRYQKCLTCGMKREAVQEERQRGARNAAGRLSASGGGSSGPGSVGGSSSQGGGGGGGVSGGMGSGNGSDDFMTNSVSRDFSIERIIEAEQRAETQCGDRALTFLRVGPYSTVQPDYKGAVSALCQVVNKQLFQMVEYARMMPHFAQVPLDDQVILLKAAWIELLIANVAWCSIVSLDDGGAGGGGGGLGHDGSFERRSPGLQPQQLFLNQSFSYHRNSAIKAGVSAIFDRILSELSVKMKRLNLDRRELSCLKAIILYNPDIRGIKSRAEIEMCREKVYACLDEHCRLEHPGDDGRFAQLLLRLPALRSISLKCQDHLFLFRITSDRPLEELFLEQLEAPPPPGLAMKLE

T2: Ecdysone Receptor, isoform B1 (EcR-B1) (Drosophila melanogaster (endogenous in white prepupae)) (UniProt P34021)
T2 sequence: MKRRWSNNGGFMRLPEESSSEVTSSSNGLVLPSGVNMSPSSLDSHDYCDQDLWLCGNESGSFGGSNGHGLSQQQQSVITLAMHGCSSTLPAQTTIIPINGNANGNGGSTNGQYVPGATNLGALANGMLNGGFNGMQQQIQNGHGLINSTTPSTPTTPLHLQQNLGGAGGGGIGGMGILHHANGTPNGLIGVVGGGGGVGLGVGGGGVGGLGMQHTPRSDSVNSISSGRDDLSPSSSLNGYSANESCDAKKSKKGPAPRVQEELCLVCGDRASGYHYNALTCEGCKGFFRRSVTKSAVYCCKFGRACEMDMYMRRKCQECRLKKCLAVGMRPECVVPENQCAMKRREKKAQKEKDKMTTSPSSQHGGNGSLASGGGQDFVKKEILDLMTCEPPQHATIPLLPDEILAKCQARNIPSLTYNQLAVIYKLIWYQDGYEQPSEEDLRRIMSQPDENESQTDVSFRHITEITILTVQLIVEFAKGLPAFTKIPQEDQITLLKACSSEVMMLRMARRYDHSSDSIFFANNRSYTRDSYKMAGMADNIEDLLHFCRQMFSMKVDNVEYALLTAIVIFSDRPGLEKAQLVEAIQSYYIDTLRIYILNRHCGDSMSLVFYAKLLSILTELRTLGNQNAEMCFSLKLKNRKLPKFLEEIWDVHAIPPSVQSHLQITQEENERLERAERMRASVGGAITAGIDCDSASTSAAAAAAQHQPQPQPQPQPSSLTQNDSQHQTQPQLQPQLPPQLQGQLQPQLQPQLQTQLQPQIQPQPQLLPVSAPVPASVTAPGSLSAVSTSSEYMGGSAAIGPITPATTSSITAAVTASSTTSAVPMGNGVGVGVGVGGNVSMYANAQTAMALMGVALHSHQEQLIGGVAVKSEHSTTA


Legend:
[1] = biological target: T1, Ultraspiracle (USP) (Drosophila melanogaster (endogenous in white prepupae)); experiment: affinity purification with mass spectrometry; immunoprecipitates of EcR or USP from wild-type white prepupae; gel plug, trypsin, nano LC-MS/MS; two biological replicates combined
[2] = biological target: T2, Ecdysone Receptor, isoform B1 (EcR-B1) (Drosophila melanogaster (endogenous in white prepupae)); experiment: as above

| binding [1] | binding [2] | Molecule |
| --- | --- | --- |
| binds | binds | Hsp70 |
| binds | binds | Med13 (encoded by skuld or skd) (from UniProt Q7KTX8 1-2618) |
| binds | binds | Utx |
| binds | binds | cyclin-dependent kinase 8 (CDK8) (from UniProt Q9VT57 1-454) (enzyme) |
| binds | binds | Cyclin C (CycC) (protein, UniProt P25008 1-267) MAGNFWQSSHSQQWILDKPDLLRERQHDLLALNEDEYQKVFIFFANVIQVLGEQLKLRQQVIATATVYFKRFYARNSLKNIDPLLLAPTCILLASKVEEFGVISNSRLISICQSAIKTKFSYAYAQEFPYRTNHILECEFYLLENLDCCLIVYQPYRPLLQLVQDMGQEDQLLTLSWRIVNDSLRTDVCLLYPPYQIAIACLQIACVILQKDATKQWFAELNVDLDKVQEIVRAIVNLYELWKDWKEKDEIQMLLSKIPKPKPPPQR |

The next lines start with the molecule.

| Molecule | binding [1] | binding [2] |
| --- | --- | --- |
| Med12 (encoded by kohtalo or kto) (from UniProt Q9VW47 1-2531) | binds | binds |
| Smrter (Smr) | binds | binds |
| Taiman | binds | binds |
| Rigor mortis (Rig) (protein, UniProt Q86BY9 1-1235) MNSQVMYHNVPTPPGNVSLAAAAPDGGLLYAGIRCINYISAPPANGEQPQVVTMSTRINILALDVSPMWGLGNGGPTKPFAIVGDDLSVQVWDCALGEAVIGHKAHQHQHEARDVRVVHHTTNSVLMSYLANGNILSMDASDLVIYCVASNTYCRRSTFISPRNHQLTMVRCSPYNDNLFAVGTAMGNVLVCDLRKMNIVYKFHGHKAPICGLAWREVPAAEDEKTNNLALSAEEWRSRNGGQEEKPKTKPPPLTKSKAAESDDPFDIYNFDHLEYEFGAPIAERRRKSSEDCGGEFVGLEKPAGAAVLDFVEACESVKAELLASRQEDKTQHVEVTLHDCEPTKPTGPLSDASTISNKNDASDSTEGSLEVIQYSSSSDDAVIVDGEAAKPKREVLHHIYHQAEVHASGTPQTKSEPQSNLQVVPAISAETISLTSVNSTHLETLLVSIDGDEVMMIWNTNTGAHAGKNYSKSKTAGKLNNVYWLNNHVIVSLSRHQLFFWSVEFERKMLRYKISKDKSHSCHLQDIVSFACDSSKEMIWLCRNNRQIGMMNPKTGRMADFYGTVAFGVRAMAECPDDMNKIALGCSDRRVAFFDISKLTTSCLPIDSVYVSSNVYCLAWSPNCLELAFGTFDGTVGILDVERMKVKTHLRTPHKKEVYSLVWQDHFIYFIVNRVLGFFDLRKSKIEPTIVNCISRPSYLSIRDSFLFVGTDDGLLQIHERDSGMEKSWSPFIRQSALFARYVTDIAWCPLDSNKFAVSGNDRSVYVMEFQPTERNWKTLHTFTANTEKASITSMRWSHTQKHLLLTFHIEGKVCLWNCNAPEKPPLTITYHCPMWCGMFLPTNENIIMCSGKALSVELIDIKDALEGDEKSICPKVDALLNVKWASKSLTQPYAPVLTAAEKKRQRRDQRKAAAKLEVDVANKDQKKIQESVTAVIDNPTNDKCTQETPVEEMLEALSLDKEQNNRSAKECPKCKEQSPDSFTHSRTCLYLTQKELNKSALEKLAIVLTEDSAKIDKSVLISKLFSSKVMAKELIATELTNLKHSNTKDIAPLCLAMSTFKLREELEQHIANKTLTERHVSLAPSVSFTLWQDCCRAYAKQMEEKGYIMHAATYLFSQGMQSEAIKLFLANEYYKEALVHARICLPATDPLIKTVINNWLEHLEGTGNFAAAALICVLDNEMLRGYSYLRKYRNCTPEIADLMDQIKRIGQLGGVLDGCAPNEPIHNGSTAEH | binds | binds |
